# Assay results published in article PMC10163288.
# Some of the results follow.
# B1: il10ra_site1_normal_mot_HHH_b2_04275_000000272_0001_20_36_H_._HHH_b1_00715_af2_0001_0000300033_0000001_0 (protein)
# chain: SSSSSTEELYELLREISELQHEGDREEAEKLLEEVRELAEELNNDIILAQVEFLERAVRNSSSSS
# B2: il10ra_site1_sap_20_mot_HHH_b1_06914_000000280_0001_1_18_H_._HHH_b1_01194_0001_0000200036_0000001_0_0001 (protein)
# chain: SSSSDEDSQRIYELLRLLAELDHEGDEERFEEVYEEVEELIEEANNRVLRAVLEALRRLFESSSS
# B3: il10ra_site1_normal_mot_HHH_b1_06789_af2_000000041_0001_1_20_H_._HHH_b1_05385_0001_0000100001_0000001_0_af2pred_0001 (protein)
# chain: SSSDKAARHLLELALEAAELALRLGDPEKAREALEIAEKLAEELGDEELLERVERLEELVNSSSS
# B4: il10ra_site1_normal_mot_HHH_b2_03425_000000200_0001_22_39_H_._HHH_b1_03120_0001_0000200012_0000001_0 (protein)
# chain: SSSSNEEHEELYERLRKLIELVSEGDEEEAEKLLRELEELAEELNDFIILFVVRLLKRQLSSSSS
# B5: il10ra_site1_sap_22_mot_HHH_b2_04275_000000272_0001_20_36_H_._HHH_b2_00355_0001_0000200030_0000002_0_0001_af2pred_0001 (protein)
# chain: SSSSSEREEFVRRSFHIAEWARKQGDEELAKFALRAAKRAAELSNDPELEELVEELERRLSSSSS
# B6: il10ra_site1_normal_mot_HHH_b1_03859_af2_000000004_0001_44_57_H_._HHH_b1_08440_0001_0000100002_0000002_0 (protein)
# chain: SSSSDEVLKEASELFQRASRLLEEGDKEEVEKIIEELRELSEEYGDRYVELSLRFLEALLSSSSS
# B7: il10ra_site1_normal_mot_2c1a291787c6f40772924d4e9068d803_0001_af2_000000222_0001_34_48_H_._HHH_b1_05888_af2_0001_0000500027_0000002_0 (protein)
# chain: SSSSNLEEEIFQLLIRAYRLLQEGDEEEARELLERAQELAEELNDPAALRAVESLLRMLDSSSSS
# B8: il10ra_site1_sap_25_mot_HHH_b2_07784_af2_000000103_0001_19_36_H_._HHH_b1_08477_0001_0000100004_0000001_0_0001_af2pred_0001 (protein)
# chain: SSSSNEEEERVLQLFLEVARLLDEGDEEKAEEILREAEELAKEINDPRLRLAVRFLKLLLSSSSS
# B9: il10ra_site1_sap_21_mot_HHH_b1_02641_af2_000000230_0001_39_52_H_._HHH_b1_08599_af2_0001_0000300012_0000001_0_0001_af2pred_0001 (protein)
# chain: SSSSDVEEEIEELVERAEELAEQGNPQEASKLLARASKLALELGDPELALRIAELFAKLSSSSSS
# B10: il10ra_site1_normal_mot_b26a303360aa2756ef5b79665ce52f45_0001_000000179_0001_1_11_H_._2c46b57de5df830a699d451437f22a7b_0001_0001_0000100003_0000002_0 (protein)
# chain: SEELERVKEVLKKLNTVAAFALLHKLRDLEQQGLSPEEILELLLEIAEEAGSELAREIIQELLEE
# B11: il10ra_site1_sap_15_mot_HHH_b1_03328_af2_000000129_0001_1_21_H_._963dea14d5f61e40fbb13539fee36e1a_0001_0001_0000800016_0000002_0_0001 (protein)
# chain: SSSSDVLHEIWRLIRKAFELLERGNPEEARRLVEEAQELAEERNDRATLRQLEMLEKKINSSSSS
# B12: il10ra_site1_normal_mot_HHH_b1_03333_000000091_0001_1_17_H_._HHH_b2_06884_0001_0000200021_0000001_0 (protein)
# chain: SSSSSYEEAKELIELVVQLIRQGNPEEAEEVLEQLEELAKELNTPSLEFAVRLLKEILEESSSSS
# B13: il10ra_site1_sap_21_mot_HHH_b1_00103_000000293_0001_1_15_H_._HHH_b2_08346_0001_0000200016_0000001_0_0001 (protein)
# chain: SSSSQEEFEEFKRVVEELIELAREGDEEEFERLFQELHERLERLGDEQFLWALEFIYERSSSSSS
# B14: il10ra_site1_normal_mot_ems_3hM_2400_000000184_0001_1_19_H_._HHH_b2_04619_af2_0001_0000100001_0000001_0 (protein)
# chain: SSSSSEDEEEVEELLEEAKQIEDEHELAQILFEALRIAAESRDEELFREIIRVAAELLERSSSSS
# B15: il10ra_site1_sap_17_mot_HHH_b1_01563_af2_000000118_0001_40_54_H_._HHH_b1_07170_0001_0000300020_0000001_0_0001 (protein)
# chain: SSSSSEASQLVYELLRRAVELIHEGNEEEARELLEEAERIAEENNNRVLLINIRMLLERISSSSS
# B16: il10ra_site1_normal_mot_HHH_b1_00814_af2_000000078_0001_43_57_H_._HHH_b2_04332_0003_0000300022_0000001_0_af2pred_dldesign_0_af2pred (protein)
# chain: SSSSMEEEVNSLLEEAEELLKKGKPDEVFALIKKATELAAAAEDGELLQKVRDFARKVLESSSSS
# B17: il10ra_site1_sap_22_mot_HHH_b2_01162_af2_000000234_0001_1_19_H_._527b127d34341fb70d6ba2ed43798e0e_0001_0001_0000100001_0000001_0_0001_af2pred_0001 (protein)
# chain: SSSSSSEEIEKEVEELIEEAKEIPDPKERLRVLIKAALLAAEVENQELLHEIAKLLRELSSSSSS
# B18: il10ra_site1_normal_mot_HHH_b2_05343_000000235_0001_19_35_H_._ems_3hC_444_0001_af2_0001_0000700027_0000002_0 (protein)
# chain: SSDEHQEFFRVVREAIEAAAEKDEEEAQRLVEEAERIAEEIGNLVAEHIVKFVKRLVERLASSSS
# B19: il10ra_site1_sap_21_mot_HHH_b2_00564_af2_000000012_0001_18_34_H_._HHH_b2_02403_af2_0001_0000100003_0000002_0_0001_af2pred_0001 (protein)
# chain: SDEWEELKRALEELYEKAEENNNPDVRKAARLALEILRKATETNDEELLEVVKLLLRIIEALCSS
# B20: il10ra_site1_sap_11_mot_HHH_b2_03220_af2_000000223_0001_23_40_H_._HHH_b1_03120_0001_0000200022_0000002_0_0001 (protein)
# chain: SSSSDVAQRIAELLRKAVELDNEGNPEEAEELVEEALELAEERNNDVLRMQAEYLLKIVRSSSSS
# B21: il10ra_site1_sap_20_mot_HHH_b1_05426_000000183_0001_42_56_H_._HHH_b1_08425_af2_0001_0000600024_0000001_0_0001_af2pred_0001 (protein)
# chain: SSSSSRAEELAEAAKRFLEWLLKEGDPEAARFIAEAAIQALRNLGNPELAEQIEELYEELSSSSS
# B22: il10ra_site1_normal_mot_HHH_b2_02386_000000054_0001_1_20_H_._HHH_b1_04169_af2_0002_0000100008_0000002_1 (protein)
# chain: SSSSDESEEILQEAREEIEKLLEEGNSDEAYKVARRAIELLIELGDTEALQELQEFFLRISSSSS
# B23: il10ra_site1_sap_24_mot_2c1a291787c6f40772924d4e9068d803_0001_af2_000000187_0001_34_48_H_._7562c6833517c195a8c4e1ae8d74ecad_0001_0001_0000400024_0000001_0_0001 (protein)
# chain: SSSSSRTEKALEILKRAIELAGNPELAERVEELLERYKEEGDNRYLWEAFELFREAMRLSESSSS
# B24: il10ra_site1_sap_20_mot_HHH_b1_03900_000000129_0001_1_16_H_._HHH_b1_01355_af2_0001_0000600019_0000001_0_0001 (protein)
# chain: SSSSSEEEQELLELIHQVIELALRGDEEELRELLERALELAEKLNDEKAALNLRNLLEILSSSSS
# Target: il10ra, Q13651
# Experiment: yeast display titration
row,Binder,apparent Kd
1,B1,inactive: no binding seen
2,B2,inactive: no binding seen
3,B3,inactive: no binding seen
4,B4,inactive: no binding seen
5,B5,inactive: no binding seen
6,B6,inactive: no binding seen
7,B7,inactive: no binding seen
8,B8,inactive: no binding seen
9,B9,inactive: no binding seen
10,B10,inactive: > 613 nM
11,B11,inactive: no binding seen
12,B12,inactive: no binding seen
13,B13,inactive: no binding seen
14,B14,inactive: no binding seen
15,B15,inactive: no binding seen
16,B16,inactive: no binding seen
17,B17,inactive: no binding seen
18,B18,inactive: no binding seen
19,B19,inactive: no binding seen
20,B20,inactive: no binding seen
21,B21,inactive: no binding seen
22,B22,inactive: no binding seen
23,B23,inactive: no binding seen
24,B24,inactive: no binding seen

# Single entries from the list:
# Value of B12 under apparent Kd: inactive: no binding seen
# Value of B21 under apparent Kd: inactive: no binding seen
